± gives the standard deviation of the averaged measurements. The list shows a part of the results.
Compound: Nc1nc2c(ncn2[C@@H]2O[C@H](COP(=O)(O)OP(=O)(O)OP(=O)(O)O)[C@@H](O)[C@H]2O)c(=O)[nH]1 [guanosine triphosphate]
Assay: NP40-soluble protein abundance relative to vehicle (solubility fold change) (ratio); higher = more soluble protein in presence of GTP
Outline: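 Data come from three independent experiments in which Dounce-homogenised Jurkat crude lysate was treated at eight concentrations from 0.1 to 10 mM. Treatment ran 10 min at room temperature and then 3 min at 37 °C, after which 0.8% NP40 and benzonase were added for 60 min at 4 °C before ultracentrifugation. The supernatant underwent TMT labelling and LC-MS/MS, and vsn-normalised intensities were expressed as fold change against the detergent-processed vehicle in each replicate.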

Protein sequences, listed by entry. Tags and fused reporters are not part of them. Lines headed by an entry give the natural chain unless they say otherwise; changes in a name come on top.
UniProt Q00535, whole entry, looked up: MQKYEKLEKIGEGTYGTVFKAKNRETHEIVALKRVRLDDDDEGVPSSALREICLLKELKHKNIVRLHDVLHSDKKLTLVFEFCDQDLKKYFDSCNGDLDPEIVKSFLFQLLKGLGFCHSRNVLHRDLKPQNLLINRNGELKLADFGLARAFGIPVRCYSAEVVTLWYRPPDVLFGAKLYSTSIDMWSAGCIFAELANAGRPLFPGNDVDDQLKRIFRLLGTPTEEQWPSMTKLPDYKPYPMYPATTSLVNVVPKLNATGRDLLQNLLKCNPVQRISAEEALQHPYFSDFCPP
UniProt P78362, whole entry, looked up: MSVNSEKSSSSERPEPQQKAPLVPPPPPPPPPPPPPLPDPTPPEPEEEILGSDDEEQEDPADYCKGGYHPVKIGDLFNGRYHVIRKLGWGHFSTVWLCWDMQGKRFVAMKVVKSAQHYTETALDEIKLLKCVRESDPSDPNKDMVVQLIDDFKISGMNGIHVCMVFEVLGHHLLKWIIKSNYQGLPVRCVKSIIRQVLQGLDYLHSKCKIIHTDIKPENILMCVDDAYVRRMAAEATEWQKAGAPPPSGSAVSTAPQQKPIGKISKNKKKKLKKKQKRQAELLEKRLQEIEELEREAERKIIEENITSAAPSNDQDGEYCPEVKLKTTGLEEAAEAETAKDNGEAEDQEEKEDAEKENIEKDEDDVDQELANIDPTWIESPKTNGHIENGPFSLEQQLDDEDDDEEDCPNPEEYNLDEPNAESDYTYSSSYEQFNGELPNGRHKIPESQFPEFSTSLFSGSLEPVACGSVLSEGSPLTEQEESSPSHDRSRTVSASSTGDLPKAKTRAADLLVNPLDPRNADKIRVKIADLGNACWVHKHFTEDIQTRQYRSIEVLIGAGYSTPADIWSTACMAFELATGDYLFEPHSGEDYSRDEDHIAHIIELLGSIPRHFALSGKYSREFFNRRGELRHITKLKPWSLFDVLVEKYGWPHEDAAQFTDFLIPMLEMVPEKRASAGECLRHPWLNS
UniProt P54886: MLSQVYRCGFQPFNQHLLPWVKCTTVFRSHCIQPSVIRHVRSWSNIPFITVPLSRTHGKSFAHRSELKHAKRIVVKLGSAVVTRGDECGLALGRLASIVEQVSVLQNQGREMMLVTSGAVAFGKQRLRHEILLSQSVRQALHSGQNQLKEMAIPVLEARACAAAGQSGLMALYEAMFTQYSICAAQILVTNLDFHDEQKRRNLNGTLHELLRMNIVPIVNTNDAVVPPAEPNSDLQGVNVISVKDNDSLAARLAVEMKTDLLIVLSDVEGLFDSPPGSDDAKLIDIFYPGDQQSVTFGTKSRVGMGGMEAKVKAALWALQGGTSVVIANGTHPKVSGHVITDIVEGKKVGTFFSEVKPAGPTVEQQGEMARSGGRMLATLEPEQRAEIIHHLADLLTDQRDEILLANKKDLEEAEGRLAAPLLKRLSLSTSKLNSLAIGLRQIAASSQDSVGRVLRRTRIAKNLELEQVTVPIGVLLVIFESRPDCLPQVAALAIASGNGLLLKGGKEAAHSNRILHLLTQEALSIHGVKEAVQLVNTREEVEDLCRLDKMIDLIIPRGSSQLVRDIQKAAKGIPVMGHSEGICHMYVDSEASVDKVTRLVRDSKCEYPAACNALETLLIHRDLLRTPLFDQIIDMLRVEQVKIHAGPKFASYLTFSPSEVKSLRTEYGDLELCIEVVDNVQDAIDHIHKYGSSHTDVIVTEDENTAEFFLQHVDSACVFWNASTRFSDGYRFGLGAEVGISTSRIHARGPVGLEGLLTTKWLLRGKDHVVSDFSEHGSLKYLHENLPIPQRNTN
UniProt P61289: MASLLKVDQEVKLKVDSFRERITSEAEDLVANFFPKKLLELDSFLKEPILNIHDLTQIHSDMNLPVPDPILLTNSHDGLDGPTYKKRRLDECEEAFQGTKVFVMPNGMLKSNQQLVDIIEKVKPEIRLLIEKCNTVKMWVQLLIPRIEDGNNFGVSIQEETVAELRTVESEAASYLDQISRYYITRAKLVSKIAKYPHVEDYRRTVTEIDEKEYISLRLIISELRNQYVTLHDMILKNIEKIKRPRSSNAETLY
UniProt P62136, whole entry: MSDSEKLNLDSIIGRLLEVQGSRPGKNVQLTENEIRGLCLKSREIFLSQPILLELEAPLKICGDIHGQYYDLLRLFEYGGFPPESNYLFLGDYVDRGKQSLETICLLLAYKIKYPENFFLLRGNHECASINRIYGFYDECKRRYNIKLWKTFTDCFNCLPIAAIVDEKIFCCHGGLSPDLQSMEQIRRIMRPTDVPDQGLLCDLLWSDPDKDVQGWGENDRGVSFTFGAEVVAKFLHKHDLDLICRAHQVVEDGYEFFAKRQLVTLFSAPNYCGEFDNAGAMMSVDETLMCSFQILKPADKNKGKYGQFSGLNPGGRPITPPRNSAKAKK
UniProt P55809: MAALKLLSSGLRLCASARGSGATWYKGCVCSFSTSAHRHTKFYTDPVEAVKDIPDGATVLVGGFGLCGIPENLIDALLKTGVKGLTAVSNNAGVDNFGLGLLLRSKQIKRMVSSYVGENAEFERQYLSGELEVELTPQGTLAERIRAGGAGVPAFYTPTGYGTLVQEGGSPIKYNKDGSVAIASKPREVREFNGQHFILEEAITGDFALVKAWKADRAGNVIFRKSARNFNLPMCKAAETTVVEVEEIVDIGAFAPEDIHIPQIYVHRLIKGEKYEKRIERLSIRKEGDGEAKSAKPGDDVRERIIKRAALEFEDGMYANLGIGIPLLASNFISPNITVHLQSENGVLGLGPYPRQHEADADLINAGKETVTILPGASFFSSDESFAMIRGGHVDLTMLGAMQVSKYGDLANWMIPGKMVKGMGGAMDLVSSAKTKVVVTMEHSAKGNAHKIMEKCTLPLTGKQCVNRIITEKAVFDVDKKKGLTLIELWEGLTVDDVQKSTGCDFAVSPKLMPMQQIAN
UniProt P67775, whole entry: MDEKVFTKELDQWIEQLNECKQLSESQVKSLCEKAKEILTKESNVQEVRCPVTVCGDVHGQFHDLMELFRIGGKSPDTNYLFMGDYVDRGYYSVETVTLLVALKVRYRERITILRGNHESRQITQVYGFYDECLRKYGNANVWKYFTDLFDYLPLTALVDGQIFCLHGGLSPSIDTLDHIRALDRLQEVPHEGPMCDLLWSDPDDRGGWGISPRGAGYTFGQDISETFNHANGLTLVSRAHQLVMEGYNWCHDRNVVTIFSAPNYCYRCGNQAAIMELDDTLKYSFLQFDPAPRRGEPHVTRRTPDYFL
UniProt P61981: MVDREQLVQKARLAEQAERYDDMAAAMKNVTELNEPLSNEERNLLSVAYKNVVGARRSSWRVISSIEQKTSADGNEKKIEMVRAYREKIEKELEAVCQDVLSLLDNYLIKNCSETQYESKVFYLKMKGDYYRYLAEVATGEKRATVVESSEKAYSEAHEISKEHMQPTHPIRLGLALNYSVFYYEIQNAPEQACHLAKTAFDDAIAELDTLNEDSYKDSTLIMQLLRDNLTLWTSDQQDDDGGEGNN
UniProt P78356: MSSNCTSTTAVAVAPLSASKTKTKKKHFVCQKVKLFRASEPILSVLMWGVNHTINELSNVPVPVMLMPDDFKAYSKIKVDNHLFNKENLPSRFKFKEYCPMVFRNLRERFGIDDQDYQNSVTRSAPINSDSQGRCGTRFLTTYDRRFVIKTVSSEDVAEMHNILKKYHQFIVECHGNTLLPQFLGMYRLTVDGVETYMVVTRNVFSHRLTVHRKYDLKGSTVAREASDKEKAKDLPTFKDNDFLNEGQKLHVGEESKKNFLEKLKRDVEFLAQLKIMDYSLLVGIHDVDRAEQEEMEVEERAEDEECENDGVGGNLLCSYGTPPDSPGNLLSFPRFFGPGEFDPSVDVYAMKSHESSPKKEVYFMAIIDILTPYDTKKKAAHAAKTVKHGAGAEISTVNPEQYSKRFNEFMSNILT
UniProt P55081: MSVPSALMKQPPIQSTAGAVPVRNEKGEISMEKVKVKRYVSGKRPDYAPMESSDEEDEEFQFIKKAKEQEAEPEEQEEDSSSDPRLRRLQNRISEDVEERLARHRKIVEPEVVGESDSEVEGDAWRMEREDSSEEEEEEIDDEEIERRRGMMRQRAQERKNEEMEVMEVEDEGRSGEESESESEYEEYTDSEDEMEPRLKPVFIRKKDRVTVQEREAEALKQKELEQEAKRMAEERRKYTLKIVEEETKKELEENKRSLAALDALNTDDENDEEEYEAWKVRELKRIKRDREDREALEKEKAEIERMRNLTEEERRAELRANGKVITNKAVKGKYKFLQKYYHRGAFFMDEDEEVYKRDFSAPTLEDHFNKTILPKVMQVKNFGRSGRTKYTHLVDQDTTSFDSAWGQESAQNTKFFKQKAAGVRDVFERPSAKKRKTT
UniProt P63167, whole entry: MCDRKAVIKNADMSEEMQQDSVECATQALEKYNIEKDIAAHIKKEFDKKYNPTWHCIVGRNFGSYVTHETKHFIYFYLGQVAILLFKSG
UniProt P55735: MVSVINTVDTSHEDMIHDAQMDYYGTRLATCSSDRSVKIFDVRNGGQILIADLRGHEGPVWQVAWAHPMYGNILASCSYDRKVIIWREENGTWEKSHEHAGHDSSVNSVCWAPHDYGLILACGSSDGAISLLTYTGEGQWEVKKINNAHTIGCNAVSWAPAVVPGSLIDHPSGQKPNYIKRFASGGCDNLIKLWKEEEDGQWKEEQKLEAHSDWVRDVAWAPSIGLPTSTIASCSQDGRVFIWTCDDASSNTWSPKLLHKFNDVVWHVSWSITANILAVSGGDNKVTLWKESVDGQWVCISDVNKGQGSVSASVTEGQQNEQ
UniProt P53634: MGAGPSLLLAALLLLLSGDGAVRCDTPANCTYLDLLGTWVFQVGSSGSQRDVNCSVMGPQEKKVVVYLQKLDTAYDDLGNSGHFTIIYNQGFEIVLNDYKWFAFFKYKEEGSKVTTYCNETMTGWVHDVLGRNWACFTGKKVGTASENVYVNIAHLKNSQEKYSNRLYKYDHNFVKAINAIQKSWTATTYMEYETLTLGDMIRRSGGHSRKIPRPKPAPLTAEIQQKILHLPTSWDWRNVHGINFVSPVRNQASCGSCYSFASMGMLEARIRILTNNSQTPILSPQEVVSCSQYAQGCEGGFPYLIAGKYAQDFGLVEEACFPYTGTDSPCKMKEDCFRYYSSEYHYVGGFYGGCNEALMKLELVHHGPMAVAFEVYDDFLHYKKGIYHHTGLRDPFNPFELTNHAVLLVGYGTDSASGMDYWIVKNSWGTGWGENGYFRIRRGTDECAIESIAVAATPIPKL

Target	NP40-soluble protein abundance (concentration: 0.1mM)	NP40-soluble protein abundance (concentration: 0.5mM)	NP40-soluble protein abundance (concentration: 1mM)	NP40-soluble protein abundance (concentration: 2mM)	NP40-soluble protein abundance (concentration: 4mM)	NP40-soluble protein abundance (concentration: 6mM)	NP40-soluble protein abundance (concentration: 8mM)	NP40-soluble protein abundance (concentration: 10mM)
CDK5 (UniProt Q00535)	1.06 ± 0.015	1.04 ± 0.019	0.96 ± 0.037	0.931 ± 0.042	0.928 ± 0.036	0.882 ± 0.043	0.919 ± 0.044	0.875 ± 0.089
UniProt P78362 and related entries	1.05 ± 0.077	1.08 ± 0.12	1.12 ± 0.12	1.18 ± 0.14	1.25 ± 0.12	1.31 ± 0.12	1.37 ± 0.058	1.42 ± 0.069
UniProt P54886 and related entries	1.02 ± 0.026	1.07 ± 0.05	0.9494 ± 0.0094	0.976 ± 0.039	0.964 ± 0.031	0.95 ± 0.02	0.906 ± 0.027	0.903 ± 0.055
UniProt P61289 and related entries	0.9 ± 0.067	0.772 ± 0.16	1.16 ± 0.29	0.755 ± 0.37	1.14 ± 0.32	0.735 ± 0.34	0.846 ± 0.08	0.7 ± 0.34
PPP1CA (UniProt P62136)	0.894 ± 0.12	0.92 ± 0.12	0.861 ± 0.081	0.834 ± 0.072	0.855 ± 0.083	0.853 ± 0.056	0.837 ± 0.098	0.828 ± 0.092
OXCT1 (UniProt P55809)	0.939 ± 0.04	0.962 ± 0.045	0.905 ± 0.038	0.907 ± 0.032	0.903 ± 0.037	0.887 ± 0.031	0.872 ± 0.053	0.888 ± 0.058
UniProt P55327-2|P55327-4	0.898 ± 0.15	0.867 ± 0.13	1.01 ± 0.12	1.03 ± 0.051	1.04 ± 0.13	1 ± 0.093	0.8 ± 0.15	1.05 ± 0.062
PPP2CA (UniProt P67775)	0.989 ± 0.017	0.988 ± 0.0016	0.99 ± 0.031	0.94 ± 0.012	0.951 ± 0.026	0.951 ± 0.031	0.9571 ± 0.0073	0.935 ± 0.02
UniProt P61981	0.845 ± 0.11	0.811 ± 0.067	1.01 ± 0.14	0.987 ± 0.076	0.942 ± 0.075	0.968 ± 0.12	0.912 ± 0.15	1.05 ± 0.16
UniProt P78356	0.986 ± 0.062	0.981 ± 0.045	0.961 ± 0.02	0.984 ± 0.065	0.989 ± 0.092	1 ± 0.079	1.04 ± 0.05	1.03 ± 0.081
MFAP1 (UniProt P55081)	0.906 ± 0.017	0.92 ± 0.043	1.02 ± 0.069	0.928 ± 0.1	0.919 ± 0.094	0.935 ± 0.12	0.999 ± 0.07	1.01 ± 0.092
UniProt P63167	0.862 ± 0.085	0.908 ± 0.074	1.08 ± 0.12	1.02 ± 0.046	0.989 ± 0.063	1.09 ± 0.079	1.03 ± 0.13	1.09 ± 0.11
UniProt P62701	1 ± 0.095	1.08 ± 0.16	1.08 ± 0.25	1.03 ± 0.28	0.925 ± 0.31	0.89 ± 0.31	0.828 ± 0.28	0.853 ± 0.31
SEC13 (UniProt P55735)	0.969 ± 0.029	0.942 ± 0.024	0.934 ± 0.021	0.94 ± 0.021	0.942 ± 0.015	0.947 ± 0.037	0.941 ± 0.027	0.921 ± 0.024
CTSC (UniProt P53634)	0.983 ± 0.0099	1.01 ± 0.03	0.986 ± 0.056	0.99 ± 0.02	1.02 ± 0.034	0.981 ± 0.034	0.972 ± 0.017	0.986 ± 0.044

Random excerpt: two records from the list.
Target	NP40-soluble protein abundance (concentration: 0.1mM)	NP40-soluble protein abundance (concentration: 0.5mM)	NP40-soluble protein abundance (concentration: 1mM)	NP40-soluble protein abundance (concentration: 2mM)	NP40-soluble protein abundance (concentration: 4mM)	NP40-soluble protein abundance (concentration: 6mM)	NP40-soluble protein abundance (concentration: 8mM)	NP40-soluble protein abundance (concentration: 10mM)
UniProt P78356	0.986 ± 0.062	0.981 ± 0.045	0.961 ± 0.02	0.984 ± 0.065	0.989 ± 0.092	1 ± 0.079	1.04 ± 0.05	1.03 ± 0.081
UniProt P55327-2|P55327-4	0.898 ± 0.15	0.867 ± 0.13	1.01 ± 0.12	1.03 ± 0.051	1.04 ± 0.13	1 ± 0.093	0.8 ± 0.15	1.05 ± 0.062

Source: the supplement of paper PMC6411743
